Among the data in publication PMC5298958 are binding values, retold here.

Chains of the proteins cited; added tags and fusions are not shown.
UniProt P03431: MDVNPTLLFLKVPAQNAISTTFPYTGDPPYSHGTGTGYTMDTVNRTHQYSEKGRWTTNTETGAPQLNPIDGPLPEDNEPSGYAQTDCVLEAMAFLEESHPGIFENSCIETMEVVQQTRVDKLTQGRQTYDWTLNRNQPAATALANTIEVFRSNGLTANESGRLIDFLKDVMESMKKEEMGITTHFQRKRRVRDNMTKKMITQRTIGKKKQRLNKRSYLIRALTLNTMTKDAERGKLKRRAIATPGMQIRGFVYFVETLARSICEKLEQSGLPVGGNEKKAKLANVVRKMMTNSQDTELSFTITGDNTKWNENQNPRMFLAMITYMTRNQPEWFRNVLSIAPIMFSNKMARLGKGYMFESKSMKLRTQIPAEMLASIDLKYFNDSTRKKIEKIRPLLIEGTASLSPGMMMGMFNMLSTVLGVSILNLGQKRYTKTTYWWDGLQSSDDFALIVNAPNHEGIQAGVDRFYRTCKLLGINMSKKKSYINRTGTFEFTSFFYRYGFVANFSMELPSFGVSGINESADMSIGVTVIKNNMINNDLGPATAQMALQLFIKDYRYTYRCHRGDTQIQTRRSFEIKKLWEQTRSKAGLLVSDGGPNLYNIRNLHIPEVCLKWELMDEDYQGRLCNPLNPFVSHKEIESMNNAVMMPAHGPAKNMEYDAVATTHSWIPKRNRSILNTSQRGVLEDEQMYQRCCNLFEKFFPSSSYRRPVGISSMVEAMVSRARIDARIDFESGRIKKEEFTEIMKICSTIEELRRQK

These are yes or no findings as the source states them, for the method shown.

What all share (assay): two-hybrid
Assay [1] has as its target Influenza virus RNA-dependent RNA polymerase PB1 subunit (influenza virus A/PR/8/34) (UniProt P03431).
The target of assay [2] is Influenza virus RdRp PA subunit fragment PA (453–638) (influenza virus A/PR/8/34) (UniProt P03433).
Assay [3] deals with Influenza virus RdRp PA subunit fragment PA (347–452) (influenza virus A/PR/8/34) (UniProt P03433).

As to “Pyruvate kinase M2 (from UniProt P14618 1-531)”, the binding result in assay [1], in assay [2] and in assay [3] was “no binding” in each case.
“Pyruvate kinase M2 fragment PKM (414–531) (from UniProt P14618 414-531) (domain or fragment)”: the binding entry in assay [2] and in assay [3] was “no binding” in each case.
